PubChem BioAssay AID504786 – Drosophila RNAi Screening Center, 2011
Screen: 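Fly genes required for HIF-dependent transcription when hypoxia is mimicked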 (primary screen). System: Drosophila S2 cells with a stable HIF luciferase reporter. Reagents: long dsRNA against Drosophila genes, about 0.2 µg dsRNA per well of a 384-well plate. Timing: three days of knock-down, then 20 h of DFO before reading. Challenge: desferrioxamine (DFO) at 100 µM, an iron chelator that mimics hypoxia, for 20 h. Detection: 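Firefly luciferase driven by the mouse ldh-a hypoxia-response element, measured after 20 h of 100 µM DFO; z-scores per plate, higher means more signal lost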. Scale: z-score: higher = stronger loss of HIF reporter signal.
The deposit covers about 21,000 reagents; this is a random part of those that have a named target and a result. 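Primary screen; positive scores mean lost reporter signal, so the sign may be inverted from the usual convention.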 Reagents against one gene are numbered here. A plus sign joins genes that one reagent is predicted to hit. Not all columns of the deposit are shown.

z-score, replicate 1 | z-score, replicate 2 | z-score, replicate 3 | Target gene | reagent no.
-0.4 | -0.3 | -0.7 | mre11 | 1
1.2 | 1.3 | – | Ctps | 1
-0.4 | -0.5 | – | Ctps | 2
1.2 | 2.7 | – | Ctps | 3
1.8 | 1.9 | – | Wnk | 1
-0.4 | -0.3 | 0.1 | Dab | 1
-0.4 | -0.3 | – | CG11211 | 1
-0.5 | -0.9 | – | GstZ1 | 1
-0.2 | -0.3 | – | CG16935 | 1
-1.1 | -0.5 | – | CG7691 | 1
-0.3 | -0.5 | – | CG10750 | 1
-0.1 | -0.6 | -0.7 | CG9581 | 1
-0.1 | -0.3 | – | CG1663 | 1
-0.4 | -0.3 | – | CG6495 | 1
-0.2 | -0.4 | – | RabX5 | 1
-0.3 | -0.1 | – | mib1 | 1
0 | 0 | – | CG10514 | 1
-0.2 | -0.2 | – | Zwilch | 1
-0.1 | 0.2 | – | SKIP | 1
0.3 | -0.3 | – | SKIP | 2
0.3 | -0.6 | – | SKIP | 3
-0.3 | -0.6 | 0.3 | SKIP | 4
-0.5 | 0.2 | -1 | SKIP | 5
0.2 | 0 | – | Men | 1
-0.2 | -0.3 | -0.8 | Men | 2
-0.2 | -0.1 | – | Naa35 | 1
0.1 | -0.4 | – | CG6739 | 1
-0.3 | -0.2 | – | CG30427 | 1
-0.3 | -0.4 | – | CG30427 | 2
-0.3 | 0.1 | – | CG30427 | 3
-0.2 | -0.5 | – | GIIIspla2 | 1
-0.3 | -0.3 | – | t-Grip128 | 1
0.1 | -0.1 | – | btv | 1
-0.2 | -0.8 | – | btv | 2
-0.3 | -0.4 | – | Sytbeta | 1
-0.3 | -0.2 | – | Sytbeta | 2
-0.2 | -0.2 | – | CG30026 | 1
-0.2 | -0.3 | – | Spn28F | 1
-0.4 | -0.1 | – | CG14854 | 1
-0.5 | -0.8 | -1 | Sec23 | 1
1.8 | 1.9 | – | Rm62 | 1
-0.2 | -0.3 | – | CG13114 | 1
-0.3 | -0.2 | – | MFS9 | 1
0.4 | -0.2 | – | CG17141 | 1
-0.2 | -0.5 | – | CG5727 | 1
-0.3 | -0.3 | – | CG17931 + CG42446 | 1
-0.3 | -0.5 | – | larp | 1
-0.3 | -0.8 | – | larp | 2
-0.1 | -0.3 | – | CG5561 | 1
0 | -0.2 | – | Grd | 1
-0.5 | -0.8 | – | sick | 1
-0.4 | -0.1 | – | sick | 2
-0.3 | -0.1 | – | sick | 3
-0.3 | 0.7 | – | sick | 4
-0.1 | 0.3 | – | sick | 5
-0.2 | -0.1 | – | CG14339 | 1

Part of the list above in another layout:
CG5561 | z-score, replicate 1 = -0.1; z-score, replicate 2 = -0.3
Grd | z-score, replicate 1 = 0; z-score, replicate 2 = -0.2
sick #1 | z-score, replicate 1 = -0.5; z-score, replicate 2 = -0.8
sick #2 | z-score, replicate 1 = -0.4; z-score, replicate 2 = -0.1
sick #3 | z-score, replicate 1 = -0.3; z-score, replicate 2 = -0.1
sick #4 | z-score, replicate 1 = -0.3; z-score, replicate 2 = 0.7
sick #5 | z-score, replicate 1 = -0.1; z-score, replicate 2 = 0.3
CG14339 | z-score, replicate 1 = -0.2; z-score, replicate 2 = -0.1
